In publication PMC11576107:
No constants are given. Whether binding was seen depends on the method and setting. In cells and extracts the contact can be indirect. Binding calls can cover weak binding; strength is not graded here. Sequences can lack the tags named with a protein.

Assays:
Flag-cMLC9 (chicken) [1] = assay: co-IP; Fzd1-10 knockout HEK293 cells, transfected; lysate; Western blot
Flag-cMLC9 (chicken) [2] = assay: co-IP; MDCK cells transfected 24 h; lysis buffer 50 mM Tris pH 7.5, 150 mM NaCl, 1 mM EDTA, 0.5% NP40; IP with Flag M2, GFP or myc antibody and protein G sepharose, or Flag M2 beads; Western blot

B1: myc-xDvl2 (protein, UniProt P51142 1-736)
chain: MAETKVIYHLDEEETPYLVKVPVPATDIRLRDFKAALGRGHAKYFFKAMDQDFGVVKEEISDDNAKLPCFNDRVVSWLASSEGSQPDSAPPAPATEVRPEPPPPVPPPIPPPPAERTSGIGDSRPPSFHPNVSGSTEQLDQDNESVISMRRDRVRRRESSEQAGVGRGVNGRTERHLSGYESSSTLLTSEIETSICDSEEDDTMSRFSSSTEQSSASRLLKRHRRRRKQRPPRLERTSSFSSVTDSTMSLNIITVTLNMEKYNFLGISIVGQSNERGDGGIYIGSIMKGGAVAADGRIEPGDMLLQVNDINFENMSNDDAVRVLRDIVHKPGPIVLTVAKCWDPSPQGYFTLPRNEPIHPIDPAAWVSHSAALSGSFPVYPGSASMSSMTSSTSVTETELSHALPPVSLFSLSVHTDLASVVKVMASPESGLEVRDRMWLKITIPNAFLGSDVVDWLYHHVEGFQDRREARKFASNLLKAGFIRHTVNKITFSEQCYYIFGDLTGCENYMTNLSLNDNDGSSGASDQDTLAPLPLPGASPWPLLPTFSYQYQAPHPYSTQPPAYHELSSYSYGMGSAGSQHSEGSRSSGSNRSDGGRGMQKDDRSGVAGVGGGDSKSGSGSESEYSTRSSIRRVGGGEAGPPSERSTSSRLPPHHPPSVHSYAAPGVPLSYNPMMLMMMPPPPLPPPGVCPPNSSVPPGAPPLVRDLASVPPELTATRQSFHMAMGNPSEFFVDVM
binding (Flag-cMLC9 (chicken) [1]): binds | binding (Flag-cMLC9 (chicken) [2]): binds
